Test results taken from patent US10813913B2, “Small molecules that mimic or antagonize actions of granulocyte colony-stimulating-factor (G-CSF)” (UNIVERSITY OF SOUTH FLORIDA, priority 2016, dated 2020).
For some of these results: At least one compound was matched to its structure with a doubt left. Some of these results come from one statement about several compounds together.

Tests used:
[1] = test system: blood stem cell proliferation and circulating leukocytes; conditions: Kusano et al. Blood 2004, cited from earlier work; for levels of circulating leukocytes: rodent model
[2] = target: T1, G-CSF receptor expressed on human monocytes (Homo sapiens, UniProt Q99062); assay: Competition/displacement of [125I]-G-CSF from its receptor on monocytes; assay type: binding
T1 construct: Both cell lines are known to express the G-CSF-R; host or cells: THP-1 (human monocytic cell line), intact cells
T1 sequence (Q99062 25-836): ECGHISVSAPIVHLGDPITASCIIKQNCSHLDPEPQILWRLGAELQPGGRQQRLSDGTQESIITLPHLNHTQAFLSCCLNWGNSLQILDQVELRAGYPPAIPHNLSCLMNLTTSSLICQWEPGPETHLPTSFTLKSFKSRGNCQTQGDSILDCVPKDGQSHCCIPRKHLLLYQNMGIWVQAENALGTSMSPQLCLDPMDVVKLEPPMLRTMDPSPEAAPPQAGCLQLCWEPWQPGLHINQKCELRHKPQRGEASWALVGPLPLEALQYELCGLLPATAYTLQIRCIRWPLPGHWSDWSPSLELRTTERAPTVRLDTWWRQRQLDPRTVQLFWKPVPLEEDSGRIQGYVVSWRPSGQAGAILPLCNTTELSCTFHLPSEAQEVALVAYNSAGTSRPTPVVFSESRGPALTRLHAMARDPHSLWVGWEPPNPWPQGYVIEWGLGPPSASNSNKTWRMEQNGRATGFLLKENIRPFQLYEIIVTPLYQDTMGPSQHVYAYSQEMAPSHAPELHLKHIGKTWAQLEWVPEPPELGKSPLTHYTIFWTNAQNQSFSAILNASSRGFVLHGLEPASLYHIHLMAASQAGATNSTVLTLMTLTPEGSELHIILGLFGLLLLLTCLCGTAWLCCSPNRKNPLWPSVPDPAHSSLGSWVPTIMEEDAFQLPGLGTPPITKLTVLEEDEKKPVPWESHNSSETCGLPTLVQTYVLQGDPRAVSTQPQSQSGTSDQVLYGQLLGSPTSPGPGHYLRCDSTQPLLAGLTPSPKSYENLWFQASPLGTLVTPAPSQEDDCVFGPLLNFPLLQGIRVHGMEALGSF
Protocol: Cells, prepared as described above, were incubated in 180 μL of binding medium containing 0.2% BSA, 5 mM MgSO4 and 50 mM Hepes, pH 7.2 at a concentration of 1.5×10^7 cells/mL and the appropriate concentration of [^125I]-G-CSF. This was followed by addition of increasing concentrations of each study compound (10 to 3000 nM). After 2 hrs of incubation, the amount of bound and free [^125I]-G-CSF was determined, as described above. […] Each concentration was analyzed in triplicate and experiments were repeated three times. These experiments were conducted in human monocytic and neuronal cell lines.
Displacement studies were then conducted for each of the 10 compounds. […] Compounds 6 and 10, which displaced greater than 75% of the ^125I-G-CSF, were further studied for their capacity to mimic or block the intracellular signaling triggered by the natural ligand.

[3] = test system: PI3K→Akt pathway; assay: Signal transduction pathway inhibitors with G-CSF in neuronal cells (Example 4); assay type: cell-based; conditions: inhibitor added prior to incubation with G-CSF, expected

## CCCCCCCOc1ccc(Cl)cc1C(C)(O)Cn1ccnc1 (stereo not shown) [Compound 1]
[1]
  blood stem cell proliferation: stimulate blood stem cell proliferation
  levels of circulating leukocytes: increase levels of circulating leukocytes

## CCCCCCCCOc1ccc(Cl)cc1C(C)(O)Cn1ccnc1 (stereo not shown) [Compound 2, 2-(5-chloro-2-(octyloxy)phenyl)-1-(1H-imidazol-1-yl)propan-2-ol]
[1]
  blood stem cell proliferation: stimulate blood stem cell proliferation
  levels of circulating leukocytes: increase levels of circulating leukocytes

## CCCCCCCCCOc1ccc(Cl)cc1C(C)(O)Cn1ccnc1 (stereo not shown) [Compound 3, 2-(5-chloro-2-(nonyloxy)phenyl)-1-(1H-imidazol-1-yl)propan-2-ol]
[1]
  blood stem cell proliferation: stimulate blood stem cell proliferation
  levels of circulating leukocytes: increase levels of circulating leukocytes

## COc1ccc2[nH]cc(C3NC(N)=Nc4nc5ccccc5n43)c2c1 (stereo not shown) [Compound 6, 4-(5-methoxy-1H-indol-3-yl)-3,4-dihydro-[1,3,5]-triazino-[1,2a]benzimidazol-2-amine]
[2]
  percent of I125-G-CSF displaced from its receptor: greater than 75%

## O=c1cc(N2CCOCC2)oc2c(-c3ccccc3)cccc12 [LY294002]
[3]
  PKCδII levels: decreased
  phosphorylation of Akt kinase (Ser 473): decrease
  total Akt levels: remain the same
